The supplement of paper PMC7646827
Repeats are few or missing, and single values can be far off.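 All cells are established human bladder cancer lines, one derived from a patient-derived xenograft. A luminescent ATP assay measured viability as percent inhibition relative to vehicle across seven dilutions. The paper rates scores above 59 very active, 30–59 active, 21–29 semi-active, 9–20 low active, below 9 inactive.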

Assays:
Experiment in all cases: drug sensitivity score DSS3 (score 0-100); higher = more sensitive; extreme values may be limits of the assay
Conditions in all cases: culture: 3D, ultra-low attachment; treatment time: 5 days
UM-UC-18 = tested on: UM-UC-18
UM-UC-17 = tested on: UM-UC-17
5637 = tested on: 5637
UM-UC-12 = tested on: UM-UC-12
J82 = tested on: J82
UM-UC-9 = tested on: UM-UC-9
UM-UC-1 = tested on: UM-UC-1
T-24 = tested on: T-24
UM-UC-14 = tested on: UM-UC-14
UM-UC-3 = tested on: UM-UC-3
TCCSUP = tested on: TCCSUP
UM-UC-5 = tested on: UM-UC-5
BC8149 = tested on: BC8149
UM-UC-15 = tested on: UM-UC-15
SCaBER = tested on: SCaBER
SW780 = tested on: SW780
UM-UC-6 = tested on: UM-UC-6

Row | SMILES | drug sensitivity score DSS3 (UM-UC-18) | drug sensitivity score DSS3 (UM-UC-17) | drug sensitivity score DSS3 5637 | drug sensitivity score DSS3 (UM-UC-12) | drug sensitivity score DSS3 (J82) | drug sensitivity score DSS3 (UM-UC-9) | drug sensitivity score DSS3 (UM-UC-1) | drug sensitivity score DSS3 (T-24) | drug sensitivity score DSS3 (UM-UC-14) | drug sensitivity score DSS3 (UM-UC-3) | drug sensitivity score DSS3 (TCCSUP) | drug sensitivity score DSS3 (UM-UC-5) | drug sensitivity score DSS3 (BC8149) | drug sensitivity score DSS3 (UM-UC-15) | drug sensitivity score DSS3 (SCaBER) | drug sensitivity score DSS3 (SW780) | drug sensitivity score DSS3 (UM-UC-6)
1 | Cc1cc(C)c(CNC(=O)c2cc(-c3ccc(CN4CCOCC4)cc3)cc3c2cnn3C2CCCC2)c(=O)[nH]1 (max dose 10000 nM) | 0 | 0 | 0 | 0 | 0 | 0 | 0 | 0 | 0 | 0.485 | 0.847 | 0 | 0 | 0 | 0.0545 | 0 | –
2 | Cc1nc(C#Cc2ccnc(Cl)c2)c(C)n1-c1ccc(OC(F)(F)F)cc1 (max dose 10000 nM) | 0.257 | 0 | 0 | 0 | 0 | 0 | 0 | 0 | 0 | 0 | 1.22 | 0 | 0 | 9.05 | 0 | 0 | –
3 | Nc1nc2c(cnn2CCc2ccccc2)c2nc(-c3ccco3)nn12 (max dose 10000 nM) | 0 | 0 | 5.62 | 0 | 0.684 | 0 | 0 | 15.9 | 16.3 | 0 | 0 | 0 | 0 | 0 | 0 | 0 | –
4 | O=S(=O)(c1ccccc1)c1cnc2c(N3CCNCC3)cccc2c1 (max dose 10000 nM) | 25.2 | 0 | 13.6 | 8.02 | 0 | 3.49 | 2.58 | 0 | 1.14 | 5.92 | 1.51 | – | 0 | 0 | 5.97 | 3.13 | 0.794
5 | Cc1cc(N2C[C@@H](C)N[C@@H](C)C2)ncc1-c1ccc(-c2nc3c(ccn3C)c(=O)[nH]2)cc1 [AZ6102] (max dose 10000 nM) | 0 | 0 | 0.17 | 0.161 | 0 | 0.194 | 0.29 | 9.84 | 0 | 0 | 0.675 | 0 | 0 | 0 | 0 | 0 | –
6 | C[C@@H]1CC(=O)Nc2cccc(-c3ccc4c(c3)c(-c3cnn(C)c3)nn4C)c2N1 [CPI-637] (max dose 10000 nM) | 0 | 0 | 0 | 0 | 0 | 0.691 | 1.05 | 0 | 0 | 0 | 0 | 0 | 0 | 18.2 | 0 | 0 | –
7 | CO[C@H]1C(=O)[C@]2(C)[C@@H](OC)C[C@H]3OC[C@@]3(OC(C)=O)[C@H]2[C@H](OC(=O)c2ccccc2)[C@]2(O)C[C@H](OC(=O)[C@H](O)[C@@H](NC(=O)OC(C)(C)C)c3ccccc3)C(C)=C1C2(C)C [Cabazitaxel] (max dose 10000 nM) | 60.2 | 67.8 | 66.7 | 50.5 | 26.2 | – | 43.5 | 0 | 61.2 | 26.1 | 60.4 | – | 41.7 | 0 | 35.7 | 60.5 | 54.1
8 | Cn1c(=O)c2c(ncn2CC(O)CO)n(C)c1=O (stereo unspecified) [Dyphylline] (max dose 10000 nM) | 0 | 0 | 0.0166 | 0 | 0 | 0 | 0 | 0 | 0 | 0 | 0.188 | 0 | 0 | 0 | 0.571 | 0 | –
9 | C=CC(=O)N1CCC(CNc2ncnc(N)c2-c2ccc(Oc3ccccc3)cc2)CC1 [Evobrutinib] (max dose 10000 nM) | 0 | 0 | 0 | 0 | 0 | 0 | 0 | 0.237 | 2.27e-05 | 0 | 0 | 0 | 0 | 0 | 0 | 0 | –
10 | CCOC(=O)c1ccc(N2NC(=O)C(=Cc3ccc([N+](=O)[O-])o3)C2=O)cc1 [PYR-41] (max dose 10000 nM) | 0 | 0 | 0 | 0 | 0 | 0 | 0.107 | 0 | 0 | 0 | 0.0503 | 0 | 0 | 0 | 0 | 0 | –
11 | c1ccc(NCc2ccc(CNc3ccccn3)cc2)nc1 [WZ811] (max dose 10000 nM) | 0 | 0 | 0 | 0 | 0 | 0 | 0 | 0 | 0 | 0 | 0 | 0 | 0 | 0 | 0 | 0 | –
12 | Cc1c(C(=O)N2CCOc3ccc(-c4ccc(N)nc4)cc3C2)ccc(S(C)(=O)=O)c1F [XL388] (max dose 10000 nM) | 0.412 | 0 | 0 | 1.16 | 0 | 0 | 0 | 0 | 0.829 | 0 | 4.04 | 2.21 | 7.47 | 0 | 1.16 | 0 | –
